In paper PMC5699845:
Results are given in words; binding and its absence hold for the method and conditions named. For some assays here: Binding seen in cells or lysates may run through a third protein. Some entries that bind do so weakly or less than the wild type. For some assays here: Tags and fused reporters may be left off the sequences shown.

Chains of the proteins cited; added tags and fusions are not shown.
UniProt O00463: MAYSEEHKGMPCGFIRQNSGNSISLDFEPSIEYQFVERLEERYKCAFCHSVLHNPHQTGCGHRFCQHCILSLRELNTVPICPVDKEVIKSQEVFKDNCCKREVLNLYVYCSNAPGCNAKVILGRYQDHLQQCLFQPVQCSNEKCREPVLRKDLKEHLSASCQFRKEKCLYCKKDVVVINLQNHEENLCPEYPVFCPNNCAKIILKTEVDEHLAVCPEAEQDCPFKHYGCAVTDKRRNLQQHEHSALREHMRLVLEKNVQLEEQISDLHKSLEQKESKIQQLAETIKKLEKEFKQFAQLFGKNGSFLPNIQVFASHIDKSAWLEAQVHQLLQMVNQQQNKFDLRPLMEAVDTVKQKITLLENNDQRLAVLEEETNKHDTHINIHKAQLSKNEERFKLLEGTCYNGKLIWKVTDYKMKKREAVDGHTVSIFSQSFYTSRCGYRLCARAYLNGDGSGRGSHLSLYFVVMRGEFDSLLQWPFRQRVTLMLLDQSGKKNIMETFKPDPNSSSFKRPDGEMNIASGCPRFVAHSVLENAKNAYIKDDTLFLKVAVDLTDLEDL

T1: TRAF2, endogenous (human (endogenous in 293T, HeLa, THP1)) (UniProt Q12933)
T1 sequence: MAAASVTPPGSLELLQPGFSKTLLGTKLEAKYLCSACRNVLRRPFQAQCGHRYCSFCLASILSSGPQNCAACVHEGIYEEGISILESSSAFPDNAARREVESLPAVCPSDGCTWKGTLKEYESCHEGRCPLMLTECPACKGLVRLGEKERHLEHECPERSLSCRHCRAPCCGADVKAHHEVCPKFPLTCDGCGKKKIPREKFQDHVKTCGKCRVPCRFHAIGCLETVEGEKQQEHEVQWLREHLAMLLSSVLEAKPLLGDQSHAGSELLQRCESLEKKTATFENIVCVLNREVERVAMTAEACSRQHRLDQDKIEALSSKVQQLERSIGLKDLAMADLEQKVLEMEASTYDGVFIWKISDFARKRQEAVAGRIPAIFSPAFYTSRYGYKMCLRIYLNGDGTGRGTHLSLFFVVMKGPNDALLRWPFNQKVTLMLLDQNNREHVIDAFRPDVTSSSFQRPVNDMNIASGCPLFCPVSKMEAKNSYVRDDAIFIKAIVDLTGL

T2: Flag-tagged TRAF2 (human) (UniProt Q12933)
T2 sequence: T1 sequence

T3: His-tagged TRAF2 (recombinant) (human) (UniProt Q12933)
T3 sequence: T1 sequence

T4: His-tagged TRAF2C (TRAF-C domain of TRAF2, amino acids 349–496) (human) (UniProt Q12933)
T4 sequence: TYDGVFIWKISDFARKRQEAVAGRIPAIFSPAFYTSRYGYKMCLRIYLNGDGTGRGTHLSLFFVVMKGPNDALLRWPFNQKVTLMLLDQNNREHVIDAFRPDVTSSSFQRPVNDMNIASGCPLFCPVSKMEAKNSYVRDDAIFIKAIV

B1: TBK1, endogenous (protein, UniProt Q9UHD2 1-729)
chain: MQSTSNHLWLLSDILGQGATANVFRGRHKKTGDLFAIKVFNNISFLRPVDVQMREFEVLKKLNHKNIVKLFAIEEETTTRHKVLIMEFCPCGSLYTVLEEPSNAYGLPESEFLIVLRDVVGGMNHLRENGIVHRDIKPGNIMRVIGEDGQSVYKLTDFGAARELEDDEQFVSLYGTEEYLHPDMYERAVLRKDHQKKYGATVDLWSIGVTFYHAATGSLPFRPFEGPRRNKEVMYKIITGKPSGAISGVQKAENGPIDWSGDMPVSCSLSRGLQVLLTPVLANILEADQEKCWGFDQFFAETSDILHRMVIHVFSLQQMTAHKIYIHSYNTATIFHELVYKQTKIISSNQELIYEGRRLVLEPGRLAQHFPKTTEENPIFVVSREPLNTIGLIYEKISLPKVHPRYDLDGDASMAKAITGVVCYACRIASTLLLYQELMRKGIRWLIELIKDDYNETVHKKTEVVITLDFCIRNIEKTVKVYEKLMKINLEAAELGEISDIHTKLLRLSSSQGTIETSLQDIDSRLSPGGSLADAWAHQEGTHPKDRNVEKLQVLLNCMTEIYYQFKKDKAERRLAYNEEQIHKFDKQKLYYHATKAMTHFTDECVKKYEAFLNKSEEWIRKMLHLRKQLLSLTNQCFDIEEEVSKYQEYTNELQETLPQKMFTASSGIKHTMTPIYPSSNTLVEMTLGMKKLKEEMEGVVKELAENNHILERFGSLTMDGGLRNVDCL
B2: Recombinant TBK1-Flag (protein, UniProt Q9UHD2 1-729)
chain: B1 chain

Experiments:
[1] = target: T1, TRAF2, endogenous (human (endogenous in 293T, HeLa, THP1)); assay: co-IP; endogenous proteins; lysates of non-stimulated 293T, HeLa and THP1 cells immunoprecipitated with anti-TRAF2, 3 or 6 antibodies, Western blot
[2] = target: T2, Flag-tagged TRAF2 (human); assay: co-IP; TRAFs-deficient 293T cells reconstituted with TRAF2, 3, 5 or 6, SeV-infected for the indicated times; lysates immunoprecipitated with anti-Flag antibody, Western blot
[3] = target: T3, His-tagged TRAF2 (recombinant) (human); assay: pull-down; 10 μg TBK1-Flag and 50 μg His-TRAF2/3/5/6/2C in 1 ml PBS with 20 μl Ni-NTA beads, 4°C, 2 h; washed with PBS containing 30 mM imidazole; immunoblot; both purified
[4] = target: His-tagged TRAF5 (recombinant) (human) (UniProt O00463); assay: as above
[5] = target: T4, His-tagged TRAF2C (TRAF-C domain of TRAF2, amino acids 349–496) (human); assay: condition: 10 μg TBK1-Flag and 50 μg His-TRAF2C in 1 ml; pull-down; 10 μg TBK1-Flag and 50 μg His-TRAF2/3/5/6/2C in 1 ml PBS with 20 μl Ni-NTA beads, 4°C, 2 h; washed with PBS containing 30 mM imidazole; immunoblot; both purified

Binder	binding [1]	binding [2]	binding [3]	binding [4]	binding [5]
B1	binds	binds	–	–	–
B2	–	–	binds	binds weakly	no binding
